Reference: PMC2394298

How the values were obtained:
[1] = target: T1, NF-kB p50 homodimer (UniProt P19838); assay: competition with a labelled probe; settings: excess unlabelled AP-1 oligo did not inhibit NF-kB binding to N1, unlabelled N1 did, dimer assigned from Figure 3; 1 mM MgCl2, 1 mM KCl, 7.5% Ficoll, 8.5 mM HEPES (pH not given), 1 mM DTT, 1 mg/ml BSA, 1-4 ug poly(dI-dC), 1-4 ug nuclear extract, 20 ul, room temperature; protein in an extract; label: none (unlabelled competitor)
T1 sequence (looked up, limits assumed): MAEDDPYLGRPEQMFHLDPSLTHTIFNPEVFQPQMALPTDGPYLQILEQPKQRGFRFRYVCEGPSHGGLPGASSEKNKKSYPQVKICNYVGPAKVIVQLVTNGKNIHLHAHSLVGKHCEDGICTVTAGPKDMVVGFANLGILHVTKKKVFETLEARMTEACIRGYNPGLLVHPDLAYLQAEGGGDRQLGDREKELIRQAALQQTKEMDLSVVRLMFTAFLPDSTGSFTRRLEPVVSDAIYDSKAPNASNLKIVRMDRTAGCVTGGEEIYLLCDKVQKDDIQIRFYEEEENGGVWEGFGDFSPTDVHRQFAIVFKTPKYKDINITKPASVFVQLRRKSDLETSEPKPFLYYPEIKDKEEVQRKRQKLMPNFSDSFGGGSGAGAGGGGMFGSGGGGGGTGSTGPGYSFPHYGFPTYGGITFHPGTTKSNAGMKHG

[2] = target: T1, NF-kB p50 homodimer; assay: EMSA supershift; settings: control and NS-398-treated (50 uM, 96 h) HT-29 nuclear extract, increased by NS-398; 1 mM MgCl2, 1 mM KCl, 7.5% Ficoll, 8.5 mM HEPES (pH not given), 1 mM DTT, 1 mg/ml BSA, 1-4 ug poly(dI-dC), 1-4 ug nuclear extract, 20 ul, room temperature; protein in an extract; label: 32P 5' end label

| Sequence | binding result [1] | binding result [2] |
| --- | --- | --- |
| CGCTTGATGAGTCAGCCGGAA (double strand) [AP-1 oligonucleotide (Promega)] | no binding | – |
| AGTTGAGGGGACTTTCCCAGGC (double strand) [NF-kB consensus oligonucleotide (Promega)] | – | binds |

Results from cells or extracts need not show a direct contact. For some assays here: Negatives hold for the conditions tested. For some assays here: At least one verdict was read from the data and is not stated in words by the source. Where a protein sequence is shown, tags need not be part of it. For some assays here: Construct, isoform or probe ends are uncertain for at least one entry.
